The values below come from the supplement of paper PMC4862054.

Most entries show no effect beyond the scatter of the controls.

What all share (test): normalised response (% of control), CellTox Green; higher = less cell death (100 = DMSO, 0 = benzethonium chloride kill control)
Holding throughout (conditions): incubation time: 72 h

The test system of one experiment is BT-474. The method, then: (§1)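 DSRT, 72 h incubation, CellTox Green / CellTiter-Glo readout. Signal is normalised to DMSO and benzethonium chloride controls. Value is the normalised response at the lowest tested concentration.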
A further experiment concerns BT-549. Here is the method: as §1
The test system of a further experiment is CAL-120. The method, then:
as §1

The subject of the next experiment is CAL-148. The method, then: as §1
For the next experiment, the system named is CAL-51. The method, then: as §1
Another experiment concerns CAL-85-1. Here is the method: as §1
The next experiment concerns DU-4475. Here is the method:
as §1

A further experiment concerns HCC1143. Here is the method: as §1
The subject of another experiment is HCC1599. The method, then: as §1
The next experiment relates to Hs578T. Here is the method:
as §1

The next experiment has as its system MCF-10A. Here is the method:
as §1

The next experiment has as its system MDA-MB-231. Here is the method:
as §1

Another experiment deals with MDA-MB-436. Here is the method: as §1
A further experiment relates to MDA-MB-453. Here is the method: as §1
Another experiment concerns MDA-MB-468. The method, then: as §1
A further experiment relates to MFM-223. Here is the method: as §1
The next experiment relates to HDQ-P1. The method, then: as §1

With `CCc1cncnc1N1CCN(Cc2nc3ccc(C(F)(F)F)cc3[nH]2)CC1` (1 nM), the normalised response stood at 101% in the experiment with BT-474; 89.5% with BT-549; 103% with CAL-120; 90.8% in the experiment with CAL-148; 130% with CAL-51; 101% with CAL-85-1. Moreover, the normalised response in the experiment on DU-4475 came to 100%; in the experiment with HCC1143 it was 125%; in the experiment with HCC1599, 97.7%; in the experiment on Hs578T, 114%; with MCF-10A it was 101%; in the experiment with MDA-MB-231, 95.1%. Also, the normalised response was found to be 80.7% in the experiment with MDA-MB-436, 111% in the experiment with MDA-MB-453, 96.4% in the experiment on MDA-MB-468 and 101% in the experiment on MFM-223.

As to `CN(c1ccccc1CNc1nc(Nc2ccc3c(c2)CC(=O)N3)ncc1C(F)(F)F)S(C)(=O)=O` (1 nM), the normalised response in the experiment on BT-474 is 97.2%; in the experiment with BT-549 it was 86%; in the experiment with CAL-120 it was 95.5%; in the experiment with CAL-148, 92.3%; in the experiment with CAL-51, 98.1%; in the experiment on CAL-85-1, 95.8%. Also, the normalised response with DU-4475 amounted to 98%; with HCC1143, 62.3%; in the experiment with HCC1599, 99.5%; with HDQ-P1, 105%; in the experiment on Hs578T it was 75%; in the experiment on MDA-MB-436 it was 96.8%. In addition, the figures for the normalised response in the experiment with MDA-MB-453, in the experiment with MDA-MB-468 and in the experiment with MFM-223 were 99%, 123% and 103%, respectively.

Consider `CO[C@@]12[C@H](COC(N)=O)C3=C(C(=O)C(C)=C(N)C3=O)N1C[C@@H]1N[C@@H]12` [Mitomycin C] (1 nM), for which the normalised response with BT-474 amounted to 92.7%; in the experiment on BT-549, 92.7%; in the experiment on CAL-120 it was 99.1%; with CAL-148 it was 93.3%; in the experiment with CAL-51, 101%; with CAL-85-1, 108%. In addition, the normalised response is 94.2% with DU-4475; 100% in the experiment with HCC1143; 81.2% with HCC1599; 85.7% with HDQ-P1; 62.6% with Hs578T; 72% in the experiment on MCF-10A. Moreover, the normalised response was 96.6% in the experiment on MDA-MB-231, 99.4% in the experiment on MDA-MB-436, 101% in the experiment on MDA-MB-453 and 100% with MFM-223.

As to `COCC1(CO)C(=O)C2CCN1CC2` (configuration not stated) [Prima-1 Met] (1 nM), the normalised response amounted to 103% in the experiment with BT-474; 98.1% in the experiment with BT-549; 98.3% with CAL-120; 105% with CAL-148; 117% in the experiment on CAL-51; 95.4% in the experiment with CAL-85-1. Besides, the normalised response is 96.6% in the experiment with DU-4475; 76% in the experiment with HCC1143; 95.9% with HCC1599; 93.2% in the experiment on HDQ-P1; 90.2% with Hs578T; 96.8% with MCF-10A. Further, the normalised response was determined as 99.7% in the experiment on MDA-MB-231, 111% in the experiment with MDA-MB-453, 101% with MDA-MB-468 and 102% with MFM-223.

Turning to `Cn1cnc2c(F)c(Nc3ccc(Br)cc3Cl)c(C(=O)NOCCO)cc21` [Selumetinib] (1 nM), the normalised response is 98.7% in the experiment with BT-474; 94.7% in the experiment on BT-549; 96.1% with CAL-120; 100% in the experiment with CAL-148; 109% in the experiment with CAL-51; 104% in the experiment on CAL-85-1. The normalised response was 93.3% in the experiment with DU-4475; 80.4% with HCC1143; 56.3% in the experiment on HDQ-P1; 85.4% in the experiment with Hs578T; 90.3% in the experiment on MCF-10A; 92.5% in the experiment with MDA-MB-231. The normalised response in the experiment on MDA-MB-453 came to 96.1%; with MDA-MB-468, 71.2%.
